Measurements: US20130225478A1 (YEDA RESEARCH AND DEVELOPMENT, published 2013)
No constants are given. Whether binding was seen depends on the method and setting. In cells and extracts the contact can be indirect. Some results given as binding are weak or reduced against the parent protein; the word gives no strength.

T1: TLR1 protein (mouse (RAW264.7 murine macrophages)) (UniProt Q9EPQ1)
T1 sequence (looked up): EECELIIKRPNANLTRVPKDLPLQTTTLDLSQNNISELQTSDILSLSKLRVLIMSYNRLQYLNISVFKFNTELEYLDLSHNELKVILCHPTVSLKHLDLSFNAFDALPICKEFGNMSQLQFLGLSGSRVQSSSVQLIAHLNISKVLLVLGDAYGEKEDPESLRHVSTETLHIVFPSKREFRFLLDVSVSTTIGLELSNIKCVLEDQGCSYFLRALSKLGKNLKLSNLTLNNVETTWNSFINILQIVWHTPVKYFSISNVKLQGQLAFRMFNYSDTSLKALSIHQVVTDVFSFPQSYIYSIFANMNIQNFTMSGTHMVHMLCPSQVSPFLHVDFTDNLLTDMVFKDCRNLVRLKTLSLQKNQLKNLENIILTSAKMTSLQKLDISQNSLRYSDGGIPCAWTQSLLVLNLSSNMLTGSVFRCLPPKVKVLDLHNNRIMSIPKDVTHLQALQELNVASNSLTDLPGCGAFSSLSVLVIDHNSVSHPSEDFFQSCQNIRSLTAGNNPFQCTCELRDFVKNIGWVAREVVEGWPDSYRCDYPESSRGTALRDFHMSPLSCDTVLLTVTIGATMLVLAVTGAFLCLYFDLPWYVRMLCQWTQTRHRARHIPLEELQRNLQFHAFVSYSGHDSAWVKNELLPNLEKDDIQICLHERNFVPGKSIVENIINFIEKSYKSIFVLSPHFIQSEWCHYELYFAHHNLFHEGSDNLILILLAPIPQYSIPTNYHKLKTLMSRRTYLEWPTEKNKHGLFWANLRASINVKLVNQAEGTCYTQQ


Assays:
[1] = molecular target: T1, TLR1 protein (mouse (RAW264.7 murine macrophages)); test: co-immunoprecipitation from RAW264.7 lysate, rhodamine-labeled peptide (FIG. 5A)
[2] = molecular target: T1, TLR1 protein (mouse (RAW264.7 murine macrophages)); test: co-immunoprecipitation from RAW264.7 lysate, 10 µM rhodamine-labeled peptide, fluorescent scan of SDS-PAGE

Row | Binder | binding [1] | binding [2]
1 | KKALVSGVAAALLLLILLVGKK (N-terminal rhodamine (TAMRA) label; synthesized on Rink amide MBHA resin) [mTLR2 TM N′-CtoA] | binds | binds
2 | KKLILLVGALAHHFHGLWKK (N-terminal rhodamine (TAMRA) label; synthesized on Rink amide MBHA resin) [mTLR2 TM C′-CtoA] | binds | binds
